Data on one substance can be found in article PMC7618310.

By UniProt entry, the sequences of proteins in these tests, tags left out.
UniProt Q8N4C6: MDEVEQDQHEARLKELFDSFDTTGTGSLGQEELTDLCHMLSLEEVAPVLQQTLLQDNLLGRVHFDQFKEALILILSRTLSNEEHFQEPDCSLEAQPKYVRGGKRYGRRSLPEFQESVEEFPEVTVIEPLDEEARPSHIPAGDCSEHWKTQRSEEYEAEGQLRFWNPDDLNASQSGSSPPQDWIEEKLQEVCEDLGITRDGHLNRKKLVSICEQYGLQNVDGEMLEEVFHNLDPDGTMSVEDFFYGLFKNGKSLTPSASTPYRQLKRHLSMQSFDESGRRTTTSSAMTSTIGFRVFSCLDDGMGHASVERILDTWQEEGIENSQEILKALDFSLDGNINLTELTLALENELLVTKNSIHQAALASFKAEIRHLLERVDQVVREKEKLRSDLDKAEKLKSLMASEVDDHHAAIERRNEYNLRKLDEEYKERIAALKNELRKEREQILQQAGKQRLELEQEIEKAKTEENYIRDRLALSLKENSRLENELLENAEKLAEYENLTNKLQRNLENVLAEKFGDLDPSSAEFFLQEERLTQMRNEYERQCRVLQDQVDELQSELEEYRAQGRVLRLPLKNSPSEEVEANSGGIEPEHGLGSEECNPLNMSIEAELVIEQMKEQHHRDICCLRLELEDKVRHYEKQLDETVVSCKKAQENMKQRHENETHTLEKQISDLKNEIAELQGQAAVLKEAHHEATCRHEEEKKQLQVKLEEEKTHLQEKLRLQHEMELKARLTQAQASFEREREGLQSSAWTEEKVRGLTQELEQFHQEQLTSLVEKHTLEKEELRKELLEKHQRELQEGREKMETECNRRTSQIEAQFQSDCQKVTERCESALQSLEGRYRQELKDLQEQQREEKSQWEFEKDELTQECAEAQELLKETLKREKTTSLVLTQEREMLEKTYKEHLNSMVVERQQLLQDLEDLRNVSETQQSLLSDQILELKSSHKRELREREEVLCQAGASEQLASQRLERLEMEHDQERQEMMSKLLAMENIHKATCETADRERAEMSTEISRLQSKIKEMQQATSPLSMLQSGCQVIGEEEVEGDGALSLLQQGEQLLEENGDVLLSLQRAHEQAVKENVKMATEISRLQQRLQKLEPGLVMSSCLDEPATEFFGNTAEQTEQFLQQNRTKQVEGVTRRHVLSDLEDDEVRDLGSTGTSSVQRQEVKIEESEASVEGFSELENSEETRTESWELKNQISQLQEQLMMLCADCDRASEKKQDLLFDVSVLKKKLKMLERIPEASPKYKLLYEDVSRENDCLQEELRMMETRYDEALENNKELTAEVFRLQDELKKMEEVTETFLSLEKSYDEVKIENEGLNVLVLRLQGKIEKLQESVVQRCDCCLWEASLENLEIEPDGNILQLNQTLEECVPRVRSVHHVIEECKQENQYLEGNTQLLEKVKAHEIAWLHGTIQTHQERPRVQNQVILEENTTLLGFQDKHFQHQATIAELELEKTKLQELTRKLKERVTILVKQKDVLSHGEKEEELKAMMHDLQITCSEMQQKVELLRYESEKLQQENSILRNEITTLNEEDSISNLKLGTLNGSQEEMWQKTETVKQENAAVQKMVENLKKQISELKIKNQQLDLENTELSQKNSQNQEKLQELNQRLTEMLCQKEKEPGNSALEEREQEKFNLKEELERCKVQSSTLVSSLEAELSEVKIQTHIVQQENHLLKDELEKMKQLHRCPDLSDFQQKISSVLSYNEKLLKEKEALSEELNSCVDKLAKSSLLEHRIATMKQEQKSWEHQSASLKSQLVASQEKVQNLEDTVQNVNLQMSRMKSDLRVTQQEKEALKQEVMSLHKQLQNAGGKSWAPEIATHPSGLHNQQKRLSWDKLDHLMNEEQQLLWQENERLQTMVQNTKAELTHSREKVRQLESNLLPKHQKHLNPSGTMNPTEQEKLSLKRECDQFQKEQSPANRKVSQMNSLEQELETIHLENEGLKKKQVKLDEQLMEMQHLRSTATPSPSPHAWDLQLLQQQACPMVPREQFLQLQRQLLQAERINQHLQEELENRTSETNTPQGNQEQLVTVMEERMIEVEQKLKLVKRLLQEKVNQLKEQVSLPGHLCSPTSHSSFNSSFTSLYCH

No constants are given. Whether binding was seen depends on the method and setting. In cells and extracts the contact can be indirect. Here binding means that the protein was enriched with, or labelled near, the bait; the list need not be complete. For part of these data: No binding means not detected with the bait.

For assay [1], the target named is T1, CAPture peptide (biotinylated 33-residue peptide from the low-complexity region of CCDC61).
T1 sequence (peptide, biotin on the N-terminus (Biotin-SPSPT...)): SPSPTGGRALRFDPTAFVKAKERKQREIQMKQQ
The assay can be described thus: condition: only centrinone-treated HEK293T cells (centrioles absent); affinity purification with mass spectrometry; CAPture-MS from HEK293T cells treated with 150 nM centrinone for 8 days (centrioles depleted), n = 3 CAPture and n = 2 bead-only, LFQ against control cells; only the target purified.

The target is the same in assay [2]. Nature of the assay: affinity purification with mass spectrometry; CAPture-MS from HEK293T cells treated with 150 nM centrinone for 8 days (centrioles depleted), n = 3 CAPture and n = 2 bead-only, LFQ against control cells; only the target purified.
Assay [3] has the same target. The assay can be described thus: affinity purification with mass spectrometry; CAPture-MS: biotinylated peptide on streptavidin Dynabeads M-280, sonicated whole-cell lysates (HEK293T, HAP1, U251, Jurkat, N1E-115, mouse spleen and others; also CEP83-KO HAP1 for proteins that remained), CAPture buffer with 300 mM NaCl, 2 h at 4 °C, on-bead digestion; shotgun, LFQ or TMT; bead-only control; only the target purified.

As for Ninein (from UniProt Q8N4C6 1-2090), the binding entry in assay [1] is reported as “no binding”; in assay [2] it was “binds”; in assay [3], “binds”.
